Results are given in words; binding and its absence hold for the method and conditions named. In cells and extracts the contact can be indirect. Binding calls can cover weak binding; strength is not graded here. For some assays here: Tags and fused reporters may be left off the sequences shown.
Key:
[1] = target: GST-tagged NG2-cytosolic-tail (UniProt Q00657); assay: pull-down; bead-coupled GST-NG2-cytosolic-tail incubated with lysates from WT and Stonin1-/- mouse lungs, 2 h at 4 °C; immunoblot with Stonin1 antibodies; only the target purified
[2] = target: GST-tagged NG2-cytosolic-tail (UniProt Q00657); assay: pull-down; bead-coupled GST-NG2-cytosolic-tail variants incubated with lysates of HEK293T cells overexpressing HA-Stonin1-μHD, 2 h at 4 °C; 50 mM Tris pH 8, 150 mM NaCl, 1% IGEPAL; immunoblot with HA antibodies; only the target purified

Amino acid sequences for entries named in this document (tags omitted). A change or cut given only in a name is not applied to a line headed by its entry.
UniProt Q00657: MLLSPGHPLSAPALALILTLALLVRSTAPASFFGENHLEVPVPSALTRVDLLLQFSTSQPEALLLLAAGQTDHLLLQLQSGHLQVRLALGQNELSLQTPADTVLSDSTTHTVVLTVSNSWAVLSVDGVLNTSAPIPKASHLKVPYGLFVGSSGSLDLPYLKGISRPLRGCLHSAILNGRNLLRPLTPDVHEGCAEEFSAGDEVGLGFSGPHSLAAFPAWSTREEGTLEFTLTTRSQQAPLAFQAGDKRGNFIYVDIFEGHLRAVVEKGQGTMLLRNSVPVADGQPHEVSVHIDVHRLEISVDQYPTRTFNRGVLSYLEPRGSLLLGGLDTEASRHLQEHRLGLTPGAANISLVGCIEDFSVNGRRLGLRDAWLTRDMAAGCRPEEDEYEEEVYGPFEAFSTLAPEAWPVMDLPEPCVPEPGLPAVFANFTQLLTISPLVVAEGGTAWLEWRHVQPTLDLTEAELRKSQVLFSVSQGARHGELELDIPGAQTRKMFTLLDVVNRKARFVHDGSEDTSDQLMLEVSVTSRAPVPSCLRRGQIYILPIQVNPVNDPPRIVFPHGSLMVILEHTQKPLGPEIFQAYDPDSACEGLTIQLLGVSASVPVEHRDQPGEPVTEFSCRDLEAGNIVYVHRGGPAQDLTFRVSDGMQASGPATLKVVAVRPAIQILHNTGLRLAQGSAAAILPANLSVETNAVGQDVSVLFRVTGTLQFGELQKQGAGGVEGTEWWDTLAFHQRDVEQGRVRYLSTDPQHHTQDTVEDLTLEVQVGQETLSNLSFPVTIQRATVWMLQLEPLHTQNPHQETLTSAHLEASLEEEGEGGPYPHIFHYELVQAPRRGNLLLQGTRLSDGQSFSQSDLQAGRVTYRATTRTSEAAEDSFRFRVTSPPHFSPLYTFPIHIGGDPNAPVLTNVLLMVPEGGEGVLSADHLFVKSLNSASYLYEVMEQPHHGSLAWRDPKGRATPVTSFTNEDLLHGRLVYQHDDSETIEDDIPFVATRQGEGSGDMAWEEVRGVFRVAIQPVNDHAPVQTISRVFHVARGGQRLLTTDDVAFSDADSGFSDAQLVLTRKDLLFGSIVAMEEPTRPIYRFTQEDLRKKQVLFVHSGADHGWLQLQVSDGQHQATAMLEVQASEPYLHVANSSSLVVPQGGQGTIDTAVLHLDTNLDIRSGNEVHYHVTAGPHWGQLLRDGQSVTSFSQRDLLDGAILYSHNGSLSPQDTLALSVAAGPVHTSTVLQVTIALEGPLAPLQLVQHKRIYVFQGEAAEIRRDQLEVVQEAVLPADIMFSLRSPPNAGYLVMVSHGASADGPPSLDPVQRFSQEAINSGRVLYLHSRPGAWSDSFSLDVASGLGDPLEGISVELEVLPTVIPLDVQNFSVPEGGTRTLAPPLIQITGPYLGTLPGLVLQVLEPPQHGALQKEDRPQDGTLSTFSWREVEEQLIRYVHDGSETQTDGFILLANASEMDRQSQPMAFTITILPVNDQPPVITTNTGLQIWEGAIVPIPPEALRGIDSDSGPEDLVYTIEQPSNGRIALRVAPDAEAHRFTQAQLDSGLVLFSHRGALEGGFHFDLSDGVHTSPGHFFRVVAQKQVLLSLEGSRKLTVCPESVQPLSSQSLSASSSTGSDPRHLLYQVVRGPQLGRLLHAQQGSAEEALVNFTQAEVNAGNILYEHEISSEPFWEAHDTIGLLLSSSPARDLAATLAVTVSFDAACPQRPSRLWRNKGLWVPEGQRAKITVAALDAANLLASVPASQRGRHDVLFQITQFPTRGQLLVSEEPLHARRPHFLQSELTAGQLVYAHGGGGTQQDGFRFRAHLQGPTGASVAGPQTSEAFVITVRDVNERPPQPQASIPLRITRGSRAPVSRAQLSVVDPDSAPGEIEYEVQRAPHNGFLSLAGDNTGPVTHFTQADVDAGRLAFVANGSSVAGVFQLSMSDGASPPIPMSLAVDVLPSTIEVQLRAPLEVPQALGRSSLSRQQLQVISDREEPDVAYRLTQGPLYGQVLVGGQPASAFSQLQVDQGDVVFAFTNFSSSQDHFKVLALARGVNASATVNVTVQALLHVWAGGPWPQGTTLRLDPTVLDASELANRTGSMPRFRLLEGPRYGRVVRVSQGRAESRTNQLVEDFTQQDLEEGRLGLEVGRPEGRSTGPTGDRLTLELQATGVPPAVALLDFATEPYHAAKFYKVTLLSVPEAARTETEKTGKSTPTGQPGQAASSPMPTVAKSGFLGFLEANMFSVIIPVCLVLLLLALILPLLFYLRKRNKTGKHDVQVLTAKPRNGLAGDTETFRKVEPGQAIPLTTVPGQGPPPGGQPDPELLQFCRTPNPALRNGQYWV

Row | Binder | binding [1] | binding [2]
1 | Stonin1, endogenous (mouse lung) (protein, UniProt Q8CDJ8 1-730) MYSTNPGSWVTFDDDPAFQSSQKRKDFSLETQGVCRPNGLKLTLPTLRDPPSTPSSASSTPLSSPMVDFYFSPGPPSNSPLSTPTKDFPGFPGIPKAGTHVLYPIPECSSSSAPTTAGGVGPPLLLTKPDCSPHVSLPSSHSHTQPTPTLGFTEDAGPQRVQSEARQFEYFQDHCAFSNPFWKDEGSASPFPLDSLASRKPFSPKDKEVPIGHKSLTQCSLDYICEKLEHLHSAETQDPLGDLSMQDPYAGDTVSFVPHSLFRSQPRAGWSFMLRIPEKKNMMSSRQWGPIFLKVLPGGILQMYYEKGLEKPFKEFQLDPHCRLSEPKLENFSMAGKIHTVKVEHVSYSEKRKYHAKTEVVHEPEVEQMLKLGSTEHRDFLEFLTTVEEELIKLPATAKPKNKSYEEQEICLDIQDSLWGKVTKEGQLVESAVVTQICCLCFLNGPAECFLALNDRELQKRDECYFEKEPEKKGIAILDYHFHTCVKAEEFEQSRIIKFVPLDACRFELMRFKTSYEAGELPFAVKSVVTVQGAYVELQAFVNMTPAAQGSPHAGALRSCNNIMIHFPVPAQWIKALWTRNLQRQKSLKAKMNRRACLGSLQEPESEPVIQVTVGSAKYESAYRAVVWKIDRLPDKNSSPDQPHCLSYKLELGSDQEVPSDWYPFATVQFSMLEACASRTEVRSLGVESDAQPQKHVCQRACYNIQVEIEKKWIQVDGEDADKTGGCVTQ | binds | 
2 | HA-tagged Stonin1-μHD (Stonin1-405-730) (domain or fragment, UniProt Q8CDJ8 405-730) YEEQEICLDIQDSLWGKVTKEGQLVESAVVTQICCLCFLNGPAECFLALNDRELQKRDECYFEKEPEKKGIAILDYHFHTCVKAEEFEQSRIIKFVPLDACRFELMRFKTSYEAGELPFAVKSVVTVQGAYVELQAFVNMTPAAQGSPHAGALRSCNNIMIHFPVPAQWIKALWTRNLQRQKSLKAKMNRRACLGSLQEPESEPVIQVTVGSAKYESAYRAVVWKIDRLPDKNSSPDQPHCLSYKLELGSDQEVPSDWYPFATVQFSMLEACASRTEVRSLGVESDAQPQKHVCQRACYNIQVEIEKKWIQVDGEDADKTGGCVTQ |  | binds

From article PMC4600748
